Source: doi:10.1101/2020.04.17.028118
Results are given in words; binding and its absence hold for the method and conditions named. In cells and extracts the contact can be indirect. Some entries that bind do so weakly or less than the wild type. Sequences can lack the tags named with a protein.

Target: T1, Sgs1 (bait of the Rmi1 co-IP, Fig 3D) (S. cerevisiae) (UniProt P35187)
T1 sequence: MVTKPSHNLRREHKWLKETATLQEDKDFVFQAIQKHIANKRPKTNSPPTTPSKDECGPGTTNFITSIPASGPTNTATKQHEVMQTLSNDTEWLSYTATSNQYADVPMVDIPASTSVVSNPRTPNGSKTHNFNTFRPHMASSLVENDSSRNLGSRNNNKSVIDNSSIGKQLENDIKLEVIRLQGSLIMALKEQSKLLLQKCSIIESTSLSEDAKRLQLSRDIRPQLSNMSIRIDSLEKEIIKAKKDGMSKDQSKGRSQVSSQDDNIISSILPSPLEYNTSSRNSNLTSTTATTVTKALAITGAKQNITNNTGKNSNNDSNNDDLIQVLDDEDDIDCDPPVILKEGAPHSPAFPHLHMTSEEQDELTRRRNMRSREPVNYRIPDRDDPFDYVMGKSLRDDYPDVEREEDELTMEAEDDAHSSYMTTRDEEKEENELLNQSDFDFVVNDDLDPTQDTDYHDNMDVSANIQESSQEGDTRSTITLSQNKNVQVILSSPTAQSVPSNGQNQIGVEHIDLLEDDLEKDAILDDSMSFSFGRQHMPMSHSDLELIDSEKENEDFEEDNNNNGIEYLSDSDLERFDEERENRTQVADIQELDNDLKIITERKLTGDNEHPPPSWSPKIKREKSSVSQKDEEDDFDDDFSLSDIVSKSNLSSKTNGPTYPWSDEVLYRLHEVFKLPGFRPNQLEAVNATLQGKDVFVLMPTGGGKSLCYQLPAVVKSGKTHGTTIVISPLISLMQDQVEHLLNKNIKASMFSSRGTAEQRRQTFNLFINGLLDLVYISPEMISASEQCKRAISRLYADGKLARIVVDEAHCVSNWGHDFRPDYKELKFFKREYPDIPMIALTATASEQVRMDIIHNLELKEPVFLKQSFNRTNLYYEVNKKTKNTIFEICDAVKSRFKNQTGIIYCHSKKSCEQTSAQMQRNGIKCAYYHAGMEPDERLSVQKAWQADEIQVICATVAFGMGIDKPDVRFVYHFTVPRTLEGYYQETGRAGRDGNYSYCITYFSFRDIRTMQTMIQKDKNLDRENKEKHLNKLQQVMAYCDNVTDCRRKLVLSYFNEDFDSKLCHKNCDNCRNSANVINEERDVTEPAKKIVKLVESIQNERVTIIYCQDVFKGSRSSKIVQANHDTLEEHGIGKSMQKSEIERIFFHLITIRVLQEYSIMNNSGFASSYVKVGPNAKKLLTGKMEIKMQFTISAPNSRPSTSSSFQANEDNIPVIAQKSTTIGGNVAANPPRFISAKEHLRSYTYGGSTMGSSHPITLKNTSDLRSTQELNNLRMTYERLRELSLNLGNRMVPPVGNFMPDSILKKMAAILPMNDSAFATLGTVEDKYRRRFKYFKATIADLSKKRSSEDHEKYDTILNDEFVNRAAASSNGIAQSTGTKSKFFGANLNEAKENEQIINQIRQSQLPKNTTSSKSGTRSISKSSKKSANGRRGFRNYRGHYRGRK
Experiment: co-IP

B1: Rmi1 (tagged, co-IP with Sgs1) (protein, UniProt Q02685 1-241)
chain: MSFSSILSQDITDDITPPAYSATLGSREQIVFRAYQNEPWLAGTASNLILDKKLVIVDRELLFQVLMVENITKSKLTQIDDIKTKLDPKKQKVDRLRSGAQGNGAKKYEVITQVDMEDDGNVADNNCAKENNSNNNSSAAKNKAVFKLTLQSKSGDVFFAINSTPISWSSCMLGSKIVILPGTVFNRGVFILKDSQVIFLGGINRVWNENRDQKFCDYLESKLQRDKQLVNGGSKKRKAND
binding: binds
